In this series the target is GST-FOXM1 (human) (UniProt Q08050). The series is described as follows: EMSA. Particulars: 25 mM HEPES-KOH pH 7.5, 100 mM KCl, 1 mM DTT, 0.1 mM EDTA, 20% glycerol, 50 ng protein, 1 pmol probe in 20 uL, room temperature 30 min; commercial protein; protein details: GST (N-terminal); label: 5' biotin.

Sequences of proteins named here, by UniProt entry; tags and fusion partners are left off. A change or cut given only in a name is not applied to a line headed by its entry.
UniProt Q08050: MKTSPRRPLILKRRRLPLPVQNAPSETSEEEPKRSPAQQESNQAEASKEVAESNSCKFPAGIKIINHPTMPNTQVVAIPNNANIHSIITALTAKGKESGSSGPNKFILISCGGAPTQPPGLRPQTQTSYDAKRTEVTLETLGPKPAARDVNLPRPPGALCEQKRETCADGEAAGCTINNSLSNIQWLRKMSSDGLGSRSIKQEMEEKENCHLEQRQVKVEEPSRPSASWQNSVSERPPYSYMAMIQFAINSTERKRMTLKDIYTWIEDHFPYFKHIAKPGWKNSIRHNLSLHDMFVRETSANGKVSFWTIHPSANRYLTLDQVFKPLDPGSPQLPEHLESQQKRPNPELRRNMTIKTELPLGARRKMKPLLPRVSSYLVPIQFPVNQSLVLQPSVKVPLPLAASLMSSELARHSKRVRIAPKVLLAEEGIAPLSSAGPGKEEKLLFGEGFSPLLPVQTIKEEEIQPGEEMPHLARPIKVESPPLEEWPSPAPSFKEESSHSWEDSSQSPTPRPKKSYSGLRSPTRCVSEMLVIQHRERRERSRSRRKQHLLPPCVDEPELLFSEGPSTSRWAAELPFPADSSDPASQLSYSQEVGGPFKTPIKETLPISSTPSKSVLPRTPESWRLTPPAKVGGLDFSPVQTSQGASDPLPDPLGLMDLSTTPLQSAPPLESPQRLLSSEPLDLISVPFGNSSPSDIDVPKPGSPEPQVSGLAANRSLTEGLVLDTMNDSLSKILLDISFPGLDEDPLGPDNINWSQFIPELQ

This is an account of results in paper PMC8595659.

The exact form of at least one protein or probe is not confirmed. A negative result means that nothing was seen under these conditions. At least one verdict was read from the data and is not stated in words by the source.

In the case of “ACAGGGCTGCATCAACACACCTGGCTAAACACAATTTTTAGTACAGATGGGGTTTCAC (double strand) [UBE2S promoter Site1 (MUT)]”, the binding result is given as “no binding”.
In the case of “GTAGCTGTTTCTTCAGTTGTTTTGGGTTACACACATTTGTACATATTGGTGGGGGTCTCT (double strand) [UBE2S promoter Site2 (MUT)]” it was “no binding”.
